Assay results published in article PMC5779226.
These are yes or no findings as the source states them, for the method shown. Binding seen in cells or lysates may run through a third protein. For part of these data: Binding can be weak; no strength is given. For part of these data: Where a sequence is shown, tags or fusion partners need not be part of it.

T1: eGFP-ME31B (transfected in S2 cells) (Drosophila) (UniProt P23128)
T1 sequence: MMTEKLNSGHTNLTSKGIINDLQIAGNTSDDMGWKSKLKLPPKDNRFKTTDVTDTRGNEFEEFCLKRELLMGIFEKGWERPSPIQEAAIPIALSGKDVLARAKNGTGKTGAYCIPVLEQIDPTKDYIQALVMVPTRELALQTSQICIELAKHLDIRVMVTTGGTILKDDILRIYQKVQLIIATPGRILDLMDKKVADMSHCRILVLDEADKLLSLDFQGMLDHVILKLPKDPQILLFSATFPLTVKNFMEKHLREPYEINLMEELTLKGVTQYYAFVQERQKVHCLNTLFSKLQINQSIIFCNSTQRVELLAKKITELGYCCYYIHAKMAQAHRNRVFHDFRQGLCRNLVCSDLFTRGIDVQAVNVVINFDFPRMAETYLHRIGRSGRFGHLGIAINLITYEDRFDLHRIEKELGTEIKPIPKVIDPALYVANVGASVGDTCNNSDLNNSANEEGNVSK

B1: ME31B (protein, UniProt P23128 1-459)
chain: T1 sequence

Experiments:
[1] = target: T1, eGFP-ME31B (transfected in S2 cells) (Drosophila); experiment: co-IP; S2 cells transfected with eGFP-ME31B (control FLAG-eGFP), anti-GFP antibodies on protein G beads; western blot
[2] = target: eIF4G (D. melanogaster (endogenous in S2 cells and embryos)); experiment: co-IP; S2 cell extracts, anti-PABP or anti-eIF4G Fabs (control C1) on anti-FLAG beads, 2-3 hr at 4°C, six washes; western blot

Molecule | binding [1] | binding [2]
HPat (D. melanogaster (endogenous in S2 cells)) | binds | 
eIF4G | no binding | 
B1 |  | no binding
